Test results published in patent publication US20090099204A1, “Amide derivative, insecticide containing the same and method for application thereof as insecticide” (Mitsui Chemicals, Inc., priority 2005, published 2009).
Some results were stated once for a whole list of compounds, not compound by compound.

What was measured:
Format in all cases: in vivo
[1] = tested on: Melon Thrip (Thrips palmi); experiment: Insecticidal Test on Melon Thrip (Thrips palmi); conditions: treatment concentration 300 ppm; sprayed cucumber leaf disc; adult melon thrips; 3 days
Text: Insecticidal Test on Melon Thrip (Thrips palmi)
Into a plastic cup (diameter: 5 cm, height: 5 cm) was poured 1% agar gel, and the reverse side of a cucumber leaf cut with a diameter of 4.5 cm was placed upward to prepare leaf disc. A chemical to the prescribed concentration was dispersed thereon using a vertical sprayer. After air-drying, 5 adult melon thrips were released thereinto and the resulting material was lidded. 3 days thereafter, the number of surviving insects was counted and the mortality was calculated.

[2] = tested on: Diamondback Moth (Plutella xylostella); experiment: Insecticidal Test on Diamondback Moth (Plutella xylostella); conditions: treatment concentration 100 ppm; cabbage leaf immersed; second-instar larvae; counted 6 days after release; 25° C.
Protocol: Insecticidal Test on Diamondback Moth (Plutella xylostella)
(§1) A piece of cabbage leaf was immersed for 30 seconds in a liquid chemical prepared by diluting a test compound to a prescribed concentration. After air-drying, the piece was put into a 7-cm polyethylene cup and second-instar larvae of diamondback moths were released thereinto. The polyethylene cups were set in an isothermal chamber thermostated at 25° C. From the release, 6 days later, the dead and alive were counted. The test was carried out with two replications of 5 insects per a plot.

[3] = tested on: Common Cutworm (Spodoptera litura); experiment: Insecticidal Test on Common Cutworm (Spodoptera litura); conditions: treatment concentration 100 ppm; cabbage leaf immersed; second-instar larvae; counted 6 days after release; 25° C.
Protocol: Insecticidal Test on Common Cutworm (Spodoptera litura)
as §1, with “common cutworms” for “diamondback moths”, “release” for “release,”

SMILES	mortality [1] [%]	mortality [2] [%]	mortality [3] [%]
CN(C(=O)c1cccnc1Cl)c1cccc(C(=O)Nc2c(Br)cc(C(F)(C(F)(F)F)C(F)(F)F)cc2SC(F)(F)F)c1 [2-158]	≥ 70		
O=C(Nc1cccc(C(=O)Nc2c(Br)cc(C(F)(C(F)(F)F)C(F)(F)F)cc2SC(F)(F)F)c1)c1ccc(F)cc1 [1-145]	≥ 70		
COc1cc(C(F)(C(F)(F)F)C(F)(F)F)cc(Br)c1N(C)C(=O)c1cccc(N(C)C(=O)c2ccccc2)c1 [3-49]		≥ 70	≥ 70
COc1cc(C(F)(C(F)(F)F)C(F)(F)F)cc(C)c1NC(=O)c1cccc(NC(=O)c2cccnc2Cl)c1 [1-261]		≥ 70	≥ 70
O=C(Nc1c(Cl)cc(C(F)(C(F)(F)F)C(F)(F)F)cc1SC(F)(F)F)c1cccc(NC(=O)c2cccnc2Cl)c1 [1-94]		≥ 70	≥ 70
